In this assay the target is truncated isoform of the tropomyosin-related kinase receptor C (TrkC-T1) (human (endogenous in SH-SY5Y)) (UniProt Q16288). In words: co-IP; SH-SY5Y cells pretreated 24 h with vehicle or 1 mM VPA, then 1 h with vehicle or 1 nM NT-3; lysed in RIPA buffer with 1% Triton X-100; extract incubated overnight at 4 °C with anti-TrkC-T1 antibody, Protein G magnetic beads; immunoprecipitates blotted for p75NTR and TrkC-T1.

Amino acid sequences for entries named in this document (tags omitted). A change or cut given only in a name is not applied to a line headed by its entry. Residues count along the entry.
UniProt Q16288: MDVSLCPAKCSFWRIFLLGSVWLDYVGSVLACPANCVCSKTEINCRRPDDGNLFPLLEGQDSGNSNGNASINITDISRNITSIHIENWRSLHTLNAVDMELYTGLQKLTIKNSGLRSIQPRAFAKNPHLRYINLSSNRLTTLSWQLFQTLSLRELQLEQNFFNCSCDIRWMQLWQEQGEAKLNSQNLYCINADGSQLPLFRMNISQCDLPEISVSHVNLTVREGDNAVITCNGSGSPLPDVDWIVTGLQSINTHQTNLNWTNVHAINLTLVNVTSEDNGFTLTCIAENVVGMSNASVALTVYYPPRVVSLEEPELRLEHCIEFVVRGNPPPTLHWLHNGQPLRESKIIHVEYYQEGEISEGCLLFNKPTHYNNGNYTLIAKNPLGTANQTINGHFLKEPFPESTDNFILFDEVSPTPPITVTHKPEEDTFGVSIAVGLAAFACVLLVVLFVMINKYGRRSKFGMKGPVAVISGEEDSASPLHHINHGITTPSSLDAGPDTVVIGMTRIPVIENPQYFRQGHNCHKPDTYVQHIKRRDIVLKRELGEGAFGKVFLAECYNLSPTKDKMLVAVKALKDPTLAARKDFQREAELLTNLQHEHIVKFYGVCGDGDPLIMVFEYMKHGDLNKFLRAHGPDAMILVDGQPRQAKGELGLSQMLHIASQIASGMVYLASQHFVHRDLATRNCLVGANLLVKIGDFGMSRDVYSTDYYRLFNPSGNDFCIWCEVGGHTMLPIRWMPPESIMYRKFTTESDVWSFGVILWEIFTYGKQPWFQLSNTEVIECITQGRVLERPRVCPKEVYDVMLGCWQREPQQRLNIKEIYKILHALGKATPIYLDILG
UniProt P08138, residues 29-427: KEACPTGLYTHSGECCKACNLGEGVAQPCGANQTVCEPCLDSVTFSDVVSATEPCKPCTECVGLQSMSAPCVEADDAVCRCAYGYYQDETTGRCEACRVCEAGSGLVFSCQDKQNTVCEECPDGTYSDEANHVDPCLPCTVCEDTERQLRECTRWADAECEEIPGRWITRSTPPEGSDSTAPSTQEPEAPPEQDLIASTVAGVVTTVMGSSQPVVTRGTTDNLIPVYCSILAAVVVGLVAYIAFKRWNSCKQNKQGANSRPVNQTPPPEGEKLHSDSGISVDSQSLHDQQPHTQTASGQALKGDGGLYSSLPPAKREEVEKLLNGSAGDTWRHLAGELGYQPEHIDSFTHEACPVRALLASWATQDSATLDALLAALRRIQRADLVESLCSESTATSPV

Results are given in words; binding and its absence hold for the method and conditions named. In cells and extracts the contact can be indirect. Binding can be weak; no strength is given.

Take “common neurotrophin p75NTR receptor (from UniProt P08138 29-427)”: the binding entry was “binds”.

These data come from paper PMC8346142.
